Results are given in words; binding and its absence hold for the method and conditions named. In cells and extracts the contact can be indirect. Some entries that bind do so weakly or less than the wild type. Where a sequence is shown, tags or fusion partners need not be part of it.
Key:
Assay in all cases: co-IP
IFT140 G140R (human) = IFT140 G140R (human) (UniProt Q96RY7)
IFT140 V108M (human) = IFT140 V108M (human) (UniProt Q96RY7)
IFT140 E664K (human) = IFT140 E664K (human) (UniProt Q96RY7)
IFT140 T484M (human) = IFT140 T484M (human) (UniProt Q96RY7)
IFT140 C663W (human) = IFT140 C663W (human) (UniProt Q96RY7)
IFT140 wildtype (human) = IFT140 wildtype (human) (UniProt Q96RY7)
IFT140 A341T (human) = IFT140 A341T (human) (UniProt Q96RY7)
IFT140 I233M (human) = IFT140 I233M (human) (UniProt Q96RY7)
IFT140 V292M (human) = IFT140 V292M (human) (UniProt Q96RY7)
IFT140 C333Y (human) = IFT140 C333Y (human) (UniProt Q96RY7)
IFT140 E267G (human) = IFT140 E267G (human) (UniProt Q96RY7)
IFT140 S939P (human) = IFT140 S939P (human) (UniProt Q96RY7)

Sequences of proteins named here, by UniProt entry; tags and fusion partners are left off. A change or cut given only in a name is not applied to a line headed by its entry.
UniProt Q96RY7, whole entry: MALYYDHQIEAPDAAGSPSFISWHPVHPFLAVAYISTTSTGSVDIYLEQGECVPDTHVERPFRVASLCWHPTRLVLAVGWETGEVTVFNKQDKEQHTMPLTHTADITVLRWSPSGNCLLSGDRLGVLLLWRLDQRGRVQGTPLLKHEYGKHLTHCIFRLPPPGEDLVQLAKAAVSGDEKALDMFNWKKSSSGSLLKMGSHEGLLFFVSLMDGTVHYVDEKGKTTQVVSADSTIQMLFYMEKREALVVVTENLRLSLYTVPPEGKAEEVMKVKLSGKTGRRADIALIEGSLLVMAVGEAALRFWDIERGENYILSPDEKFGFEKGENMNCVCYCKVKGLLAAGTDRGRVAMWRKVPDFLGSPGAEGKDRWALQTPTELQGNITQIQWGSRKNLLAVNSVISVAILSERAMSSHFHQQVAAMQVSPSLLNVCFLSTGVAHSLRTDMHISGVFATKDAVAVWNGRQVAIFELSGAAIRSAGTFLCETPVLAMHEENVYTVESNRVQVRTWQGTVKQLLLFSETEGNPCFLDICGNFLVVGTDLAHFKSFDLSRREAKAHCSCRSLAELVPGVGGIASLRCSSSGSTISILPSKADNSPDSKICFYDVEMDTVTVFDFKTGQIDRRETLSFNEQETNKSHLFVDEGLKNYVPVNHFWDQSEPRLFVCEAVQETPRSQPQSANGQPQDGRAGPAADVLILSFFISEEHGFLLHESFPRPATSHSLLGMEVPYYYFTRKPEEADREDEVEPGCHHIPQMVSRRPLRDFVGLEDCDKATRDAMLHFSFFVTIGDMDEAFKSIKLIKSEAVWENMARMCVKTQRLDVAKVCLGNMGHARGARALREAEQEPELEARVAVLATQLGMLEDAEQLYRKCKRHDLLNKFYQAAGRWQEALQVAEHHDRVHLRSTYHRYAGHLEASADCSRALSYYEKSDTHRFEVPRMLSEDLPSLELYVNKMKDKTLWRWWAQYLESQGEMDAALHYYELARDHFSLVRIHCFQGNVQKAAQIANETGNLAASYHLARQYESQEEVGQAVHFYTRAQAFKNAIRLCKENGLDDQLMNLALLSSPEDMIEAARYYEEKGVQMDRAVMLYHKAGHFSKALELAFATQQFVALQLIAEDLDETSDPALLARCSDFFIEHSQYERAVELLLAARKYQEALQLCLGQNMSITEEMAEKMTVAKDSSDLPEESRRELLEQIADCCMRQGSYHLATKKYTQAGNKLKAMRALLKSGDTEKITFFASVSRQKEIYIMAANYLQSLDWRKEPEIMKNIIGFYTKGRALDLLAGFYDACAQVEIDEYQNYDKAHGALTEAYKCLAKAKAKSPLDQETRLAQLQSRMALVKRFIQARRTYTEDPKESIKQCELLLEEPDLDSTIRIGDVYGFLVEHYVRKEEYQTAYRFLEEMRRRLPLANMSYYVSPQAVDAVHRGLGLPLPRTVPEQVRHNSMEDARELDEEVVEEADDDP

binding (IFT140 G140R (human)): binds
binding (IFT140 V108M (human)): binds
binding (IFT140 E664K (human)): binds weakly
binding (IFT140 T484M (human)): binds weakly
binding (IFT140 C663W (human)): binds
binding (IFT140 wildtype (human)): binds
binding (IFT140 A341T (human)): binds
binding (IFT140 I233M (human)): binds
binding (IFT140 V292M (human)): binds
binding (IFT140 C333Y (human)): binds
binding (IFT140 E267G (human)): binds
binding (IFT140 S939P (human)): binds
B1: (N)HA-TULP3 (protein, UniProt O75386 1-442)
chain: MEASRCRLSPSGDSVFHEEMMKMRQAKLDYQRLLLEKRQRKKRLEPFMVQPNPEARLRRAKPRASDEQTPLVNCHTPHSNVILHGIDGPAAVLKPDEVHAPSVSSSVVEEDAENTVDTASKPGLQERLQKHDISESVNFDEETDGISQSACLERPNSASSQNSTDTGTSGSATAAQPADNLLGDIDDLEDFVYSPAPQGVTVRCRIIRDKRGMDRGLFPTYYMYLEKEENQKIFLLAARKRKKSKTANYLISIDPVDLSREGESYVGKLRSNLMGTKFTVYDRGICPMKGRGLVGAAHTRQELAAISYETNVLGFKGPRKMSVIIPGMTLNHKQIPYQPQNNHDSLLSRWQNRTMENLVELHNKAPVWNSDTQSYVLNFRGRVTQASVKNFQIVHKNDPDYIVMQFGRVADDVFTLDYNYPLCAVQAFGIGLSSFDSKLACE
